Source: the supplement of paper PMC8728848
This is one part of the list.

Legend:
Test in all cases: glycan array binding signal (z-score within array); higher = stronger binding
Settings in all cases: glycan notation: IUPAC condensed, linker removed
[1] = molecular target: Gal(a1-3)GalNAc
Outline: (§1)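 Glycan array binding is given as a within-array Z-score, which can be read as non-binding when negative. The arrays, 3228 of them, came from the Consortium for Functional Glycomics database and were retained only where the protein sequence was available. Z-scores were averaged across arrays of the same protein sequence at different concentrations or buffers and across linkers.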

[2] = molecular target: Gal(a1-3)[Gal(a1-4)]Gal(b1-4)GlcNAc
Outline: as §1

[3] = molecular target: Gal(a1-4)Gal(b1-3)GlcNAc(b1-2)Man(a1-3)[Gal(a1-4)Gal(b1-3)GlcNAc(b1-2)Man(a1-6)]Man(b1-4)GlcNAc(b1-4)GlcNAc
Outline: as §1

[4] = molecular target: Gal(a1-4)Gal(b1-4)Glc
Outline: as §1

[5] = molecular target: Gal(a1-4)Gal(b1-4)GlcNAc
Outline: as §1

[6] = molecular target: Gal(a1-4)Gal(b1-4)GlcNAc(b1-2)Man(a1-3)[Gal(a1-4)Gal(b1-4)GlcNAc(b1-2)Man(a1-6)]Man(b1-4)GlcNAc(b1-4)GlcNAc
Outline: as §1

[7] = molecular target: Gal(a1-4)Gal(b1-4)GlcNAc(b1-3)Gal(b1-4)Glc
Outline: as §1

[8] = molecular target: Gal(a1-4)GlcNAc
Outline: as §1

[9] = molecular target: Gal(a1-6)Glc
Outline: as §1

[10] = molecular target: Gal(b1-2)Gal
Outline: as §1

[11] = molecular target: Gal(b1-3)Gal
Outline: as §1

[12] = molecular target: Gal(b1-3)Gal(b1-4)GlcNAc
Outline: as §1

[13] = molecular target: Gal(b1-3)Gal(b1-4)GlcNAc(b1-2)Man(a1-3)[Gal(b1-3)Gal(b1-4)GlcNAc(b1-2)Man(a1-6)]Man(b1-4)GlcNAc(b1-4)GlcNAc
Outline: as §1

[14] = molecular target: Gal(b1-3)GalNAc
Outline: as §1

[15] = molecular target: Gal(b1-3)GalNAc(a1-3)[Fuc(a1-2)]Gal(b1-4)Glc
Outline: as §1

[16] = molecular target: Gal(b1-3)GalNAc(a1-3)[Fuc(a1-2)]Gal(b1-4)GlcNAc
Outline: as §1

[17] = molecular target: Gal(b1-3)GalNAc(b1-3)Gal(a1-4)Gal(b1-4)Glc
Outline: as §1

[18] = molecular target: Gal(b1-3)GalNAc(b1-4)Gal(b1-4)Glc
Outline: as §1

[19] = molecular target: Gal(b1-3)GalNAc(b1-4)[Neu5Ac(a2-3)]Gal(b1-4)Glc
Outline: as §1

[20] = molecular target: Gal(b1-3)GlcNAc
Outline: as §1

[21] = molecular target: Gal(b1-3)GlcNAc(a1-6)Gal(b1-4)GlcNAc
Outline: as §1

[22] = molecular target: Gal(b1-3)GlcNAc(b1-2)Man(a1-3)[Gal(b1-3)GlcNAc(b1-2)Man(a1-6)]Man(b1-4)GlcNAc(b1-4)GlcNAc
Outline: as §1

[23] = molecular target: Gal(b1-3)GlcNAc(b1-2)Man(a1-3)[Gal(b1-3)GlcNAc(b1-2)Man(a1-6)]Man(b1-4)GlcNAc(b1-4)[Fuc(a1-6)]GlcNAc
Outline: as §1

[24] = molecular target: Gal(b1-3)GlcNAc(b1-3)Gal(b1-3)GlcNAc
Outline: as §1

[25] = molecular target: Gal(b1-3)GlcNAc(b1-3)Gal(b1-4)Glc
Outline: as §1

[26] = molecular target: Gal(b1-3)GlcNAc(b1-3)Gal(b1-4)GlcNAc
Outline: as §1

[27] = molecular target: Gal(b1-3)GlcNAc(b1-3)Gal(b1-4)GlcNAc(b1-6)[Gal(b1-3)GlcNAc(b1-3)]Gal(b1-4)Glc
Outline: as §1

[28] = molecular target: Gal(b1-3)GlcNAc(b1-3)Gal(b1-4)[Fuc(a1-3)]GlcNAc(b1-6)[Gal(b1-3)GlcNAc(b1-3)]Gal(b1-4)Glc
Outline: as §1

[29] = molecular target: Gal(b1-3)GlcNAc(b1-3)GalNAc
Outline: as §1

[30] = molecular target: Gal(b1-3)GlcNAc(b1-6)Gal(b1-4)GlcNAc
Outline: as §1

[31] = molecular target: Gal(b1-3)[Fuc(a1-4)]GlcNAc
Outline: as §1

[32] = molecular target: Gal(b1-3)[Fuc(a1-4)]GlcNAc(b1-2)Man(a1-3)[Gal(b1-3)[Fuc(a1-4)]GlcNAc(b1-2)Man(a1-6)]Man(b1-4)GlcNAc(b1-4)GlcNAc
Outline: as §1

[33] = molecular target: Gal(b1-3)[Fuc(a1-4)]GlcNAc(b1-2)Man(a1-3)[Gal(b1-3)[Fuc(a1-4)]GlcNAc(b1-2)Man(a1-6)]Man(b1-4)GlcNAc(b1-4)[Fuc(a1-6)]GlcNAc
Outline: as §1

[34] = molecular target: Gal(b1-3)[Fuc(a1-4)]GlcNAc(b1-3)Gal(b1-3)[Fuc(a1-4)]GlcNAc
Outline: as §1

[35] = molecular target: Gal(b1-3)[Fuc(a1-4)]GlcNAc(b1-3)Gal(b1-4)GlcNAc
Outline: as §1

[36] = molecular target: Gal(b1-3)[Fuc(a1-4)]GlcNAc(b1-3)Gal(b1-4)[Fuc(a1-3)]GlcNAc
Outline: as §1

[37] = molecular target: Gal(b1-3)[GlcNAc(b1-6)]GalNAc
Outline: as §1

B1: CLEC9a (Mus musculus), Q8BRU4 (protein)
chain: MHAEEIYTSLQWDIPTSEASQKCQSPSKCSGAWCVVTMISCVVCMGLLATSIFLGIKFFQVSSLVLEQQERLIQQDTALVNLTQWQRKYTLEYCQALLQRSLHSGSDCSPCPHNWIQNGKSCYYVFERWEMWNISKKSCLKEGASLFQIDSKEEMEFISSIGKLKGGNKYWVGVFQDGISGSWFWEDGSSPLSDLLPAERQRSAGQICGYLKDSTLISDKCDSWKYFICEKKAFGSCI
glycan array binding signal (z-score) [1]: 0.271
glycan array binding signal (z-score) [2]: -0.691
glycan array binding signal (z-score) [3]: 3.35
glycan array binding signal (z-score) [4]: -0.652
glycan array binding signal (z-score) [5]: 0.415
glycan array binding signal (z-score) [6]: 0.28
glycan array binding signal (z-score) [7]: 1.36
glycan array binding signal (z-score) [8]: 0.545
glycan array binding signal (z-score) [9]: -0.332
glycan array binding signal (z-score) [10]: 0.032
glycan array binding signal (z-score) [11]: 0.706
glycan array binding signal (z-score) [12]: -1.04
glycan array binding signal (z-score) [13]: 0.024
glycan array binding signal (z-score) [14]: -0.657
glycan array binding signal (z-score) [15]: -0.197
glycan array binding signal (z-score) [16]: -0.754
glycan array binding signal (z-score) [17]: 1.15
glycan array binding signal (z-score) [18]: 0.254
glycan array binding signal (z-score) [19]: 0.155
glycan array binding signal (z-score) [20]: 0.346
glycan array binding signal (z-score) [21]: -1.66
glycan array binding signal (z-score) [22]: 1.97
glycan array binding signal (z-score) [23]: 0.889
glycan array binding signal (z-score) [24]: -0.95
glycan array binding signal (z-score) [25]: 1.12
glycan array binding signal (z-score) [26]: 1.18
glycan array binding signal (z-score) [27]: -0.402
glycan array binding signal (z-score) [28]: -0.367
glycan array binding signal (z-score) [29]: -1.75
glycan array binding signal (z-score) [30]: 0.069
glycan array binding signal (z-score) [31]: 1.85
glycan array binding signal (z-score) [32]: -1.53
glycan array binding signal (z-score) [33]: -1.31
glycan array binding signal (z-score) [34]: 1.12
glycan array binding signal (z-score) [35]: -0.507
glycan array binding signal (z-score) [36]: 0.941
glycan array binding signal (z-score) [37]: -0.515
